Results published in patent US8476197B2, “Aminopropenoates as fungicides” (priority 2009, dated 2013).
Some of these results come from one statement about several compounds together.

tested on: Phytophthora infestans; type: in vivo; conditions: preventive, tomato, 500 ppm of active ingredient, evaluated 7 days after inoculation

| Structure (SMILES) | efficacy [%] |
| --- | --- |
| COC(=O)C(C#N)=C(NC1CCSC1)c1cccnc1Cl (stereo not drawn) [Compound 22] | ≥ 70 |
| CCOC(=O)C(C#N)=C(NC(C)C1CCC1)c1cn(C)nc1C(F)F (stereo not drawn) [Compound 1133] | ≥ 70 |
| CCOC(=O)C(C#N)=C(NC(C)c1nc(C)c(C)s1)c1cn(C)nc1C(F)(F)F (stereo not drawn) [Compound 64] | ≥ 70 |
| CNC(=O)C(C#N)=C(NC(C)c1nccs1)c1cccnc1Cl (racemic) [Compound 269] | ≥ 70 |
| CCOC(=O)C(C#N)=C(Nc1ccc(N(C)C)cc1)c1cn(C)nc1C(F)F [Compound 496] | ≥ 70 |
| CCOC(=O)C(C#N)=C(NC1CCC1)c1cnccc1C(F)(F)F [Compound 800] | ≥ 70 |
| CCONC(=O)C(C#N)=C(NC(C)C(C)C)c1cccnc1Cl (stereo not drawn) [Compound 1454] | ≥ 70 |
| CCOC(=O)C(C#N)=C(NC1CC1(C)C)c1cccnc1Cl (stereo not drawn) [Compound 1055] | ≥ 70 |
| CCCCCCC(C)NC(=C(C#N)C(=O)OCC)c1cccnc1Cl (racemic) [Compound 819] | ≥ 70 |
| COC(=O)C(C#N)=C(NC1CCCC1)c1cccnc1Cl [Compound 763] | ≥ 70 |
| CCOC(=O)C(C#N)=C(NC(C)c1cscn1)c1ccncc1C(F)(F)F (mixture of isomers) [Compound 303] | ≥ 70 |
| CCOC(=O)C(C#N)=C(NC(C)C1CC=CCC1)c1cn(C)nc1C(F)F (stereo not drawn) [Compound 1141] | ≥ 70 |
| COC(=O)C(C#N)=C(NC(C)C1(Cl)CC1)c1cccnc1Cl (stereo not drawn) [Compound 768] | ≥ 70 |
| CCOC(=O)C(C#N)=C(NC(C)C1=NCCS1)c1cccnc1Cl (stereo not drawn) [Compound 1629] | ≥ 70 |
| CCOC(=O)C(C#N)=C(NC(C)c1nccs1)c1cnccc1C(F)(F)F (racemic) [Compound 256] | ≥ 70 |
| COC(=O)C(C#N)=C(NC(C)CF)c1cccnc1Cl (stereo not drawn) [Compound 746] | ≥ 70 |
| CCOC(=O)C(C#N)=C(NC(C)c1nccn1C)c1cccnc1Cl (stereo not drawn) [Compound 1637] | ≥ 70 |
| CCOC(=O)C(C#N)=C(NC(C)CSCC)c1cccnc1Cl (stereo not drawn) [Compound 586] | ≥ 70 |
| CCOC(=O)C(C#N)=C(NC(C)(C)C=C(Cl)Cl)c1cccnc1Cl [Compound 1271] | ≥ 70 |
| CCOC(=O)C(C#N)=C(Nc1ccc2ncsc2c1)c1cccnc1Cl [Compound 1269] | ≥ 70 |
| CCOC(=O)C(C#N)=C(Nc1ccccc1SC)c1cn(C)nc1C(F)F [Compound 349] | ≥ 70 |

| Structure (SMILES) | efficacy [%] |
| --- | --- |
| CCOC(=O)C(C#N)=C(NC1C2CCCCC21)c1cccnc1Cl (stereo not drawn) [Compound 1083] | ≥ 70 |
| CCOC(=O)C(C#N)=C(NC1CCC1)c1ccncc1Br [Compound 803] | ≥ 70 |
| CCOC(=O)C(C#N)=C(NC(C)CSC)c1cccnc1Cl (racemic) [Compound 562] | ≥ 70 |
| CCOC(=O)C(C#N)=C(NC(C)c1ccccn1)c1ccncc1Br (mixture of isomers) [Compound 299] | ≥ 70 |
| CCOC(=O)C(C#N)=C(NC(C)COCc1ccccc1Cl)c1cccnc1Cl (stereo not drawn) [Compound 1172] | ≥ 70 |
| CCOC(=O)C(C#N)=C(NC(C)C(=O)Nc1ccc2ccccc2c1)c1cccnc1Cl (stereo not drawn) [Compound 1193] | ≥ 70 |
| CCOC(=O)C(C#N)=C(NCCCCO)c1cccnc1Cl [Compound 1184] | ≥ 70 |
| CCOC(=O)C(C#N)=C(NC1(c2c(F)cccc2F)CC1)c1cn(C)nc1C(F)F [Compound 559] | ≥ 70 |
| CCOC(=O)C(C#N)=C(NC1CC1)c1cn(C)nc1C(F)F [Compound 1124] | ≥ 70 |
| CCOC(=O)C(C#N)=C(NC1(COc2ccccc2)CC1)c1cn(C)nc1C(F)F [Compound 561] | ≥ 70 |
| C=CCNC(=O)C(C#N)=C(NC(C)c1nccs1)c1cn(C)nc1C(F)F (racemic) [Compound 1292] | ≥ 70 |
| CCOC(=O)C(C#N)=C(NC(C)c1ccccn1)c1ccnc(Cl)c1Br (racemic) [Compound 1404] | ≥ 70 |
| CCOC(=O)C(C#N)=C(NC(C)c1nccs1)c1cccnc1C(F)F (racemic) [Compound 266] | ≥ 70 |
| C#CC(C)(C)NC(=C(C#N)C(=O)OCC)c1cn(C)cc1C(F)(F)F [Compound 1038] | ≥ 70 |
| CCOC(=O)C(C#N)=C(NC(C)c1ncc(C)s1)c1sccc1C(F)(F)F (stereo not drawn) [Compound 216] | ≥ 70 |
| CCOC(=O)C(C#N)=C(NC(C)C(=O)OCc1ccccc1)c1cccnc1Cl (stereo not drawn) [Compound 1539] | ≥ 70 |
| CCOC(=O)C(C#N)=C(NC(C)CSC)c1cccnc1OC (stereo not drawn) [Compound 687] | ≥ 70 |
| CCOC(=O)C(C#N)=C(NC(C)C(C)C)c1cn(C)nc1C(C)C (stereo not drawn) [Compound 1208] | ≥ 70 |
| CCOC(=O)C(C#N)=C(NC(C)c1ccccn1)c1cccnc1Br (racemic) [Compound 1546] | ≥ 70 |
| CCSC(=O)C(C#N)=C(NC(C)c1nccs1)c1cccnc1Cl (stereo not drawn) [Compound 1489] | ≥ 70 |
| CCCNC(=O)C(C#N)=C(NC(C)C(C)C)c1cccnc1Cl (stereo not drawn) [Compound 988] | ≥ 70 |

| Structure (SMILES) | efficacy [%] |
| --- | --- |
| CCOC(=O)C(C#N)=C(NC(C)c1ccc(F)cc1)c1ccsc1Br (racemic) [Compound 531] | ≥ 70 |
| CCC(C)NC(=C(C#N)C(=O)OC)c1cccnc1Cl (stereo not drawn) [Compound 826] | ≥ 70 |
| CCOC(=O)C(C#N)=C(NC(C)C(C)C)c1cccnc1OC (stereo not drawn) [Compound 961] | ≥ 70 |
| CCOC(=O)C(C#N)=C(NC(C)CSC)c1ccc(Cl)nc1Cl (stereo not drawn) [Compound 595] | ≥ 70 |
| CCOC(=O)C(C#N)=C(NC1CCCCC1O)c1cccnc1Cl (mixture of isomers) [Compound 1064] | ≥ 70 |
| CCOC(=O)C(C#N)=C(NC(C)c1cscn1)c1ccncc1Br (mixture of isomers) [Compound 298] | ≥ 70 |
| CCOC(=O)C(C#N)=C(NC(C)C1CC=CCC1)c1cccnc1Cl (stereo not drawn) [Compound 760] | ≥ 70 |
| CNC(=O)C(C#N)=C(NC(C)c1nccs1)c1ccc(Cl)nc1Cl (stereo not drawn) [Compound 1460] | ≥ 70 |
| CCOC(=O)C(C#N)=C(Nc1ccccc1OC(F)(F)F)c1cn(C)nc1C(F)F [Compound 1227] | ≥ 70 |
| CCOC(=O)C(C#N)=C(NC(C)CC1CC1)c1cn(C)nc1C(F)F (stereo not drawn) [Compound 1136] | ≥ 70 |
| CCNC(=O)C(C#N)=C(Nc1ccccc1SC)c1cccnc1Cl [Compound 1616] | ≥ 70 |
| CCOC(=O)C(C#N)=C(NC(C)C(=O)NC)c1ccncc1Cl (stereo not drawn) [Compound 723] | ≥ 70 |
| CCOC(=O)C(C#N)=C(NC(C)C(=O)NC)c1cc(Cl)sc1Cl (stereo not drawn) [Compound 1632] | ≥ 70 |
| CCOC(=O)C(C#N)=C(NC(C)C=NO)c1cccnc1Cl (stereo not drawn) [Compound 1443] | ≥ 70 |
| CCOC(=O)C(C#N)=C(Nc1cccc(F)c1OC)c1cccnc1Cl [Compound 1611] | ≥ 70 |
| CCOC(=O)C(C#N)=C(NC(C)c1nccs1)c1ccnc(Cl)c1Cl (stereo not drawn) [Compound 1276] | ≥ 70 |
| CON(C)C(=O)C(C#N)=C(NC(C)C(C)C)c1cccnc1Cl (stereo not drawn) [Compound 1246] | ≥ 70 |
| CCOC(=O)C(C#N)=C(NC(C)c1ccc(Cl)cc1)c1ccncc1Cl (racemic) [Compound 541] | ≥ 70 |
| CCOC(=O)C(C#N)=C(NC(C)c1nccs1)c1cnc(Cl)cc1Cl (racemic) [Compound 223] | ≥ 70 |
| CCOC(=O)C(C#N)=C(NC(C)C(C)Sc1ccccc1)c1cccnc1Cl (stereo not drawn) [Compound 1159] | ≥ 70 |
| CCOC(=O)C(C#N)=C(NC(C)COCc1ccc(C(F)(F)F)cc1)c1cccnc1Cl (stereo not drawn) [Compound 731] | ≥ 70 |

| Structure (SMILES) | efficacy [%] |
| --- | --- |
| CCOC(=O)C(C#N)=C(NC(C)c1nccs1)c1cn(C)nc1CC (stereo not drawn) [Compound 1213] | ≥ 70 |
| COC(=O)C(C#N)=C(Nc1ccccc1SC)c1cn(C)nc1C(F)F [Compound 357] | ≥ 70 |
| CCOC(=O)C(C#N)=C(NC(C)c1nccs1)c1cc(Cl)sc1Cl (racemic) [Compound 221] | ≥ 70 |
| C=CC(COCc1ccccc1)NC(=C(C#N)C(=O)OCC)c1cn(C)nc1C(F)F (stereo not drawn) [Compound 691] | ≥ 70 |
| CCOC(=O)C(C#N)=C(NC(C)C(=O)Nc1ccc2ccccc2c1)c1ccsc1Br (stereo not drawn) [Compound 717] | ≥ 70 |
| CCOC(=O)C(C#N)=C(NC(C)c1nc(C)cs1)c1cccnc1Cl (stereo not drawn) [Compound 1536] | ≥ 70 |
| C=CCNC(=O)C(C#N)=C(NC(C)c1ccccn1)c1cn(C)nc1C(F)F (racemic) [Compound 1291] | ≥ 70 |
| CCOC(=O)C(C#N)=C(NC1CCC1)c1cn(C)nc1C(Cl)Cl [Compound 1566] | ≥ 70 |
| CCOC(=O)C(C#N)=C(NC(C)COCC(C)(C)C)c1cccnc1Cl (stereo not drawn) [Compound 1178] | ≥ 70 |
| CCOC(=O)C(C#N)=C(NC(C)COC)c1ccsc1Br (stereo not drawn) [Compound 714] | ≥ 70 |
| CCOC(=O)C(C#N)=C(NC1CCC1)c1cccnc1Cl [Compound 1186] | ≥ 70 |
| CCOC(=O)C(C#N)=C(NC(C)c1ccc(C)cc1)c1cccnc1Cl (stereo not drawn) [Compound 1150] | ≥ 70 |
| CCOC(=O)C(C#N)=C(NC(C)c1nccs1)c1ccnc(Cl)c1Br (racemic) [Compound 1406] | ≥ 70 |
| CCOC(=O)C(C#N)=C(NC1CC1CC)c1cccnc1Cl (stereo not drawn) [Compound 1062] | ≥ 70 |
| COC(=O)C(C#N)=C(NC(c1cc2ccccc2s1)C(F)(F)F)c1cn(C)nc1C(F)F (racemic) [Compound 60] | ≥ 70 |
| CCOC(=O)C(C#N)=C(NC1CCC1)c1ccncc1Cl [Compound 798] | ≥ 70 |
| CCOC(=O)C(C#N)=C(NC1CCc2ccccc21)c1cn(C)nc1C(F)F (stereo not drawn) [Compound 1079] | ≥ 70 |
| CCOC(=O)C(C#N)=C(NCCC(C)C)c1cccnc1Cl [Compound 1185] | ≥ 70 |
| CCNC(=O)C(C#N)=C(NC(C)c1nccs1)c1cn(C)nc1C(F)F (racemic) [Compound 1294] | ≥ 70 |
| CCCCCNC(=C(C#N)C(=O)OCC)c1cccnc1Cl [Compound 1175] | ≥ 70 |
| CCOC(=O)C(C#N)=C(NC(C)C)c1cccnc1Cl [Compound 823] | ≥ 70 |
